In assay [1] the target is His-tagged N2 region of BIRC6 (aa 358-543) (mouse) (UniProt O88738). The assay is described as follows: pull-down; His-tagged N1 or N2 region of BIRC6 with the LIR1 peptide in vitro; both purified.
Assay [2] has as its target His-tagged N1 region of BIRC6 (aa 27-358) (mouse) (UniProt O88738). The assay is described as above.

Protein sequences, listed by entry. Tags and fused reporters are not part of them. Lines headed by an entry give the natural chain unless they say otherwise; changes in a name come on top.
UniProt O88738: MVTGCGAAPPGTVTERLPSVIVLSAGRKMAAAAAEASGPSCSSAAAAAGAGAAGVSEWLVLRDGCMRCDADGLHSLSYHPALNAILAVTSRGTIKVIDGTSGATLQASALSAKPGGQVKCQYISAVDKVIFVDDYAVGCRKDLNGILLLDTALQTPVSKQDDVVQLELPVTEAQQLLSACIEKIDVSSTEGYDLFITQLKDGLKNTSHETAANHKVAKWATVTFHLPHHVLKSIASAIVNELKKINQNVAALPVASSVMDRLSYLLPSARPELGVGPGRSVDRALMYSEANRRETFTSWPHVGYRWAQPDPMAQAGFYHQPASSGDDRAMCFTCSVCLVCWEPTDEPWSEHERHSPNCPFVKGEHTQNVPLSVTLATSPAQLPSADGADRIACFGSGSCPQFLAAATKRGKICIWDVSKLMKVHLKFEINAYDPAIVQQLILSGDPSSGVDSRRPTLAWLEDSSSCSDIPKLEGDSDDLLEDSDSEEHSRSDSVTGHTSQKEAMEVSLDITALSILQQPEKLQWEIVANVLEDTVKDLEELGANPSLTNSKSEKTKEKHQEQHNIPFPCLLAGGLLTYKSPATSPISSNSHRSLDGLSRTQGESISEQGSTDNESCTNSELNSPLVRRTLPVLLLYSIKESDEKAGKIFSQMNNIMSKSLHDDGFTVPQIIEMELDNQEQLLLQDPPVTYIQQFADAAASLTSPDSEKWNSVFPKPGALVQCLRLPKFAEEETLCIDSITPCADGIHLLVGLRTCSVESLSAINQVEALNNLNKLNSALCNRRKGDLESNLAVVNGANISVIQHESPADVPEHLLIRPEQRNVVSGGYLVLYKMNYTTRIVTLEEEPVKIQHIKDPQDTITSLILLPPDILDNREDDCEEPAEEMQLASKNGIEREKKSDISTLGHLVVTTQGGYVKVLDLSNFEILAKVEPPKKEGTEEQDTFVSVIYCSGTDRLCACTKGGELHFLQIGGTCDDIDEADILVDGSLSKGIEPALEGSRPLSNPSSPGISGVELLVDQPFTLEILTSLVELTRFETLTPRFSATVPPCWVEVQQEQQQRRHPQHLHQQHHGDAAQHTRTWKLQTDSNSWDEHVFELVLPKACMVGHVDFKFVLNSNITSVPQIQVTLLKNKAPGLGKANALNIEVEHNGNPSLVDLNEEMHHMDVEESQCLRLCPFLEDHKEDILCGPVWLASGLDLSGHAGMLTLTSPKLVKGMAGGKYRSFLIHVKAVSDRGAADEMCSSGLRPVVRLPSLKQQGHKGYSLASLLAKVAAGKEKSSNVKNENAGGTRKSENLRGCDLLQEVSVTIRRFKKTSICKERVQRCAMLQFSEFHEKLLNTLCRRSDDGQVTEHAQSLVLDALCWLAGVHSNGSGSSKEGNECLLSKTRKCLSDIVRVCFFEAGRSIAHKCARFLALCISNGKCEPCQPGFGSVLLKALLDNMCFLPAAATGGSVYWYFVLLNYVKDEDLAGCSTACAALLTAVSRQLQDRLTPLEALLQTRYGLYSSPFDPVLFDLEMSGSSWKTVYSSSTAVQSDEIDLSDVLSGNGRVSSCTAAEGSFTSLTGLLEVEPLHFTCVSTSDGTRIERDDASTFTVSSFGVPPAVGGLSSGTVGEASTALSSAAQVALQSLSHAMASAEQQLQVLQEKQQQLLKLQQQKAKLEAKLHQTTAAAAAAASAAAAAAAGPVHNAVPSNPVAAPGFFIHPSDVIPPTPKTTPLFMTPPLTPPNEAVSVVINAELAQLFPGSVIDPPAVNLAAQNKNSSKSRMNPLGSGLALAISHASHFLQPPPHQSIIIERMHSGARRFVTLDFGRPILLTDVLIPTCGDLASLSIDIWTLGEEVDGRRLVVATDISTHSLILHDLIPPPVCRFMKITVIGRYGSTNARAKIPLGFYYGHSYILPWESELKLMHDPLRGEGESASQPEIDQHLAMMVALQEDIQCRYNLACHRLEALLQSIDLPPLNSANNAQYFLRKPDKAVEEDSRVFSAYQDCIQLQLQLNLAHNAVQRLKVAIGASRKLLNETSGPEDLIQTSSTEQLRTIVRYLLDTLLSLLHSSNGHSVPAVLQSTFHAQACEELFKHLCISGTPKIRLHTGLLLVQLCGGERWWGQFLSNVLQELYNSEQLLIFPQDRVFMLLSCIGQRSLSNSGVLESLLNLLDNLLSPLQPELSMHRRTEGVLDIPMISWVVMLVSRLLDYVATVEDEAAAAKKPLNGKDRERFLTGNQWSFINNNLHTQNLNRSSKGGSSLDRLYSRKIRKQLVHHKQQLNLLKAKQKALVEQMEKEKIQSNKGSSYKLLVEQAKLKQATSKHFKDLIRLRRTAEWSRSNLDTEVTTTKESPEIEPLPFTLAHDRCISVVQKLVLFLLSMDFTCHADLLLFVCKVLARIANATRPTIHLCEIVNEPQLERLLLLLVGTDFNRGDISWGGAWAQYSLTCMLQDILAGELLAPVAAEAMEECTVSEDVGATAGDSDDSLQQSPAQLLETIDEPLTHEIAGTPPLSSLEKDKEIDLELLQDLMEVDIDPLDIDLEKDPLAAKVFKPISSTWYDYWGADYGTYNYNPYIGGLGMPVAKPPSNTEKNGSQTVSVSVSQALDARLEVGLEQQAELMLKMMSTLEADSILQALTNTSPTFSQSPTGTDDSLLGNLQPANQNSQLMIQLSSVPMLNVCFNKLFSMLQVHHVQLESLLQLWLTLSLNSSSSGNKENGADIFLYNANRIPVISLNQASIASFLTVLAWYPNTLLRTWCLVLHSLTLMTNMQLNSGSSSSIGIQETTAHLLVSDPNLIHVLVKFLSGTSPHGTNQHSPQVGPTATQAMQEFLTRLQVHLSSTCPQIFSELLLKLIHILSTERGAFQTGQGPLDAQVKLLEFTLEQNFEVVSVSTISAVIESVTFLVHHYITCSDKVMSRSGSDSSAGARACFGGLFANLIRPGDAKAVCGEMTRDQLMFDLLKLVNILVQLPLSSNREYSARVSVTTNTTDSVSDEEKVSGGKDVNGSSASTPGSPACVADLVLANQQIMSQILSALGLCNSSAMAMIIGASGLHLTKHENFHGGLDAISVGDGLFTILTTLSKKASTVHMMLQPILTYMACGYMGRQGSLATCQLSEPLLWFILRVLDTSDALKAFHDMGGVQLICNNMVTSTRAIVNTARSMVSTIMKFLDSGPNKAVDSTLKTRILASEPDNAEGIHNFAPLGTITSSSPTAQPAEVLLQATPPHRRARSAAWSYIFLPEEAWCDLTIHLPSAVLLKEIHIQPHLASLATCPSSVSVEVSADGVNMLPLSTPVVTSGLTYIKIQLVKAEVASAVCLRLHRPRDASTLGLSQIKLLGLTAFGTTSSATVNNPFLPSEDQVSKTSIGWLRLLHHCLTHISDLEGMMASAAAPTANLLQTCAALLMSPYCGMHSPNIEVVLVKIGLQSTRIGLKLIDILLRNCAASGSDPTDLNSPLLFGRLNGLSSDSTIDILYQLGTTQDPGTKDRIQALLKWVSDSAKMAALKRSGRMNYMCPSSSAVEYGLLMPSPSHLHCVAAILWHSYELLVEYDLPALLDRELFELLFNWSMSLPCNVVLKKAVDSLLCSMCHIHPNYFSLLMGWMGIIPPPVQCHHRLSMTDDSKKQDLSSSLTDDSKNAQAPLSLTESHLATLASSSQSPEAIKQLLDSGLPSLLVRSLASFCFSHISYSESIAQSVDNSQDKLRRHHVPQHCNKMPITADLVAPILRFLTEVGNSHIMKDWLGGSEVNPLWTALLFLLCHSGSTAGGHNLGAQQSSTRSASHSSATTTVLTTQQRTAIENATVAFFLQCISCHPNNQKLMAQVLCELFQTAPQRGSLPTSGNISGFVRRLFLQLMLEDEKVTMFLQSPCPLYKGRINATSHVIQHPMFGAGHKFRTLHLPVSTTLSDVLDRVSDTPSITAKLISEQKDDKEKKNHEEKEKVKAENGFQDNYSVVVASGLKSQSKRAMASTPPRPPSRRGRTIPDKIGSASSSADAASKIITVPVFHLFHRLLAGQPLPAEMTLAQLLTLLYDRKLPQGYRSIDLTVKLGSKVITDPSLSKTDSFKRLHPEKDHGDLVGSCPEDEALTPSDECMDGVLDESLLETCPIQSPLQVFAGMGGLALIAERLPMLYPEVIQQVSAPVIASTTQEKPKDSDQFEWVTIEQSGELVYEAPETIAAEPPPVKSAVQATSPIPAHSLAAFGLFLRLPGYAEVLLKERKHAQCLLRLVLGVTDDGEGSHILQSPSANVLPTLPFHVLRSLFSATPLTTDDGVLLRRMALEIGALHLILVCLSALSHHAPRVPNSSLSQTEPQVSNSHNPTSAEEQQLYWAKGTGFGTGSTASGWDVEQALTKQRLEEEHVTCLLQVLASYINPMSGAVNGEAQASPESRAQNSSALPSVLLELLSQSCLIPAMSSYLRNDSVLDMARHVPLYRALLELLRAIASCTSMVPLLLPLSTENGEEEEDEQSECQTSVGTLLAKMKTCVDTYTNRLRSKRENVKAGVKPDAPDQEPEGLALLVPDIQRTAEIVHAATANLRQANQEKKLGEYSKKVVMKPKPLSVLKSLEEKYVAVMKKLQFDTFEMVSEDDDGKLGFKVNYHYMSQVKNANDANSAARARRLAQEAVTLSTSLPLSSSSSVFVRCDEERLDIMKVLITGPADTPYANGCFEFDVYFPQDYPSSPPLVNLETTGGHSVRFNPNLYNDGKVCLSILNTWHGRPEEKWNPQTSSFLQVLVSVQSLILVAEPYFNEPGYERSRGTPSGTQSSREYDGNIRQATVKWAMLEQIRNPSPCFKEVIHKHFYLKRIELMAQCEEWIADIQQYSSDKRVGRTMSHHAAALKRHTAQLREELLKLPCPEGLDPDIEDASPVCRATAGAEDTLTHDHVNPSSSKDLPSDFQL

These are yes or no findings as the source states them, for the method shown. For some assays here: Binding calls can cover weak binding; strength is not graded here.

B1: BIRC6-LIR1 peptide (peptide)
peptide: NPQTSSFLQVLV
Take B1: the binding entry in assay [1] is on record as “no binding”; in assay [2] it was “binds”.

These data come from PMC10827748.
